Results: PMC5099462
Results are given in words; binding and its absence hold for the method and conditions named. Binding seen in cells or lysates may run through a third protein. Some binding calls cover weakened binding; strength is not graded here.

Chains of the proteins cited; added tags and fusions are not shown. Residues count along the entry.
UniProt Q61527, residues 26-1308: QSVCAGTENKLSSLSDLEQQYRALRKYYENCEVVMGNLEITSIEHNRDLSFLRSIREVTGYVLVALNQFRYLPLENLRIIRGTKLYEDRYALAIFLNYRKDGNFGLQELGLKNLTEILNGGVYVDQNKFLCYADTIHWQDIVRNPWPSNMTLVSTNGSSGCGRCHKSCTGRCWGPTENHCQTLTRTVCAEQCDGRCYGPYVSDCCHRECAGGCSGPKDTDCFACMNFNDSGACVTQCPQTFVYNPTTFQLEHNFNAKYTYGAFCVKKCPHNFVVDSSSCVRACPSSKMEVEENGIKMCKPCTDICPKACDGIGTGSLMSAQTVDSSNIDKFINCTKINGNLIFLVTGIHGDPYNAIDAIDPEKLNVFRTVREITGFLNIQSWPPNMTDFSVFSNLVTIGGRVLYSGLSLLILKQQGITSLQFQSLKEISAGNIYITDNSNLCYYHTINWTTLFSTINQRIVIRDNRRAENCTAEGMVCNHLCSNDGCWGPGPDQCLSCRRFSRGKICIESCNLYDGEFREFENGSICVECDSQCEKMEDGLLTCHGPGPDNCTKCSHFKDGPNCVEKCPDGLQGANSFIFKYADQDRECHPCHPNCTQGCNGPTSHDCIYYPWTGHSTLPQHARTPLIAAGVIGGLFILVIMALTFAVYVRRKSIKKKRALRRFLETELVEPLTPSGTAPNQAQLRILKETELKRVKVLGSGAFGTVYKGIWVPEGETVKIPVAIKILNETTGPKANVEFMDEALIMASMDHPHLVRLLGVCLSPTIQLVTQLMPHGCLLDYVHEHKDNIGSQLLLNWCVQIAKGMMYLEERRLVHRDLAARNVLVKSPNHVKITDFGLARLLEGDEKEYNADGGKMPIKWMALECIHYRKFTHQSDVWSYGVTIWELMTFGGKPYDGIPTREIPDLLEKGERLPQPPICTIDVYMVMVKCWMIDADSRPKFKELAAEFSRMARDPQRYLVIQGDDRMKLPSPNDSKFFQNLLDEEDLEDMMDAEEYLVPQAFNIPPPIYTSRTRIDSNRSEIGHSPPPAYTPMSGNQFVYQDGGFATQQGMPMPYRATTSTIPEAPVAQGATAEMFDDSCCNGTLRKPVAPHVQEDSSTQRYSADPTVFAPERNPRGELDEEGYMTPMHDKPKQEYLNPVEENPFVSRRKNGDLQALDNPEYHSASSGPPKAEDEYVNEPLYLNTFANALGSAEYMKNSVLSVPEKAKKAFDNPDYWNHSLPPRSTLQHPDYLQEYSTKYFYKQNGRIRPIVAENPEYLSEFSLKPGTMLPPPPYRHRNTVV

Experiments:
[1] = target: T1, DISC1 (endogenous, mouse cortical neurons) (mouse (endogenous in primary cortical neurons)) (UniProt Q811T9); assay: proximity ligation; Duolink In Situ Red PLA with anti-DISC1 (N-16) and anti-ErbB4 (C-18) on fixed DIV21 mouse cortical cultures, PG67-GFP-positive inhibitory neurons; cells treated with NRG1β1 for 5 min before fixation
T1 sequence: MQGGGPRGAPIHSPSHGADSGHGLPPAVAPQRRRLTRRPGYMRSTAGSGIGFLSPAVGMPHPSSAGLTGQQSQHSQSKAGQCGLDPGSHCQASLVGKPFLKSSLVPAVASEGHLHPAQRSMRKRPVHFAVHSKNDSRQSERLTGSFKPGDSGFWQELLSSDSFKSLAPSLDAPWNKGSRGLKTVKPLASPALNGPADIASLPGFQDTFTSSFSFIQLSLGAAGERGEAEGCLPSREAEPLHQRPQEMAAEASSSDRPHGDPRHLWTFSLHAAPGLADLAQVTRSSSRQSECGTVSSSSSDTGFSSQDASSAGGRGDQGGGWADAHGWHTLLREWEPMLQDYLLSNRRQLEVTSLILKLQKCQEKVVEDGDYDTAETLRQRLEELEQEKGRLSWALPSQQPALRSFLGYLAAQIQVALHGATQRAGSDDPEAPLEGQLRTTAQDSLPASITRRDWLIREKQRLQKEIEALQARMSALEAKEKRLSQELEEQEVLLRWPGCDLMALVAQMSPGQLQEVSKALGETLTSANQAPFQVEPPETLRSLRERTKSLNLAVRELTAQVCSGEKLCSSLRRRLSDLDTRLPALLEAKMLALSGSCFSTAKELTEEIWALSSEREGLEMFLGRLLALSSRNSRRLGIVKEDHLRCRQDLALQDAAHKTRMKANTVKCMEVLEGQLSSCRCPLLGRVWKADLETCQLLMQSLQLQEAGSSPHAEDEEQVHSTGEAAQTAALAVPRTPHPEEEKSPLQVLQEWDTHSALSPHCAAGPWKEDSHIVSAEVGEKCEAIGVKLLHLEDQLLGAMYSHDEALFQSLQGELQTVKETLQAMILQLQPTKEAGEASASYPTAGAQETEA

[2] = target: T1, DISC1 (endogenous, mouse cortical neurons) (mouse (endogenous in primary cortical neurons)); assay: proximity ligation; Duolink In Situ Red PLA with anti-DISC1 (N-16) and anti-ErbB4 (C-18) on fixed DIV21 mouse cortical cultures, PG67-GFP-positive inhibitory neurons; cells treated with PBS (vehicle, no NRG1) for 5 min before fixation

binding [1]: binds
Substance: ErbB4 (endogenous, mouse cortical neurons) (from UniProt Q61527 26-1308) (receptor)
binding [2]: no binding (condition: PBS-treated cells, without NRG1)
